Laboratory results: PubChem BioAssay AID1224828 (NIAID, 2016)

Aim: 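Regulators linking TLR4 signalling to p65 nuclear translocation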 (primary screen)
Cells: mouse RAW264.7 G9 macrophage reporter cells (GFP-p65, Tnf promoter-mCherry)
Reagent: siRNA pool against mouse genes, 100 nM
Time to read-out: 2 days siRNA transfection, then 40 min LPS before fixation
Conditions: LPS (Salmonella minnesota R595) at 10 ng/ml
Measured: 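Microscopy ratio of nuclear to perinuclear-ring GFP-p65 signal, scaled to the plate median; gene score is the average of two replicate robust z-scores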
Scale: p65 translocation robust z-score: higher = more nuclear NF-kappaB p65 after LPS than the plate median; nuclear/cytoplasmic p65 ratio: higher = more nuclear NF-kappaB p65
Call rule: 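Active if robust z is above 3.3 (negative regulators) or below -1.56, the Tlr4 control median (positive regulators); activity score 50 or more; control wells not called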
Calls: active = hit (p65 shift raised or lowered); inactive = no clear change
This is an unselected part of about 17,000 reagents. 762 of them (4.5%) were called active. 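Active calls include both raised and lowered p65 entry, mostly lowered; wells with fewer than 50 cells lack a z-score.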 Raw values vary from plate to plate and are shown uncorrected. Reagents against one gene are numbered here.

| target | reagent | p65 translocation robust z-score | nuclear/cytoplasmic p65 ratio, rep 1 | nuclear/cytoplasmic p65 ratio, rep 2 | low cell count flag | Outcome |
| --- | --- | --- | --- | --- | --- | --- |
| B230219D22Rik (GeneID 78521) | 1 | 2.48 | 1.98 | 1.85 | enough cells to score | inactive |
| Klra2 (GeneID 16633) | 1 | -1.55 | 1.37 | 1.19 | enough cells to score | inactive |
| Trmt6 (GeneID 66926) | 1 | – | 1.35 | 1.14 | fewer than 50 cells per well; well left out of scoring | inactive |
| Zkscan8 (GeneID 93681) | 1 | 0.46 | 1.51 | 1.28 | enough cells to score | inactive |
| Piwil4 (GeneID 330890) | 1 | 0.11 | 1.46 | 1.54 | enough cells to score | inactive |
| Coq9 (GeneID 67914) | 1 | – | 1.26 | 1.21 | fewer than 50 cells per well; well left out of scoring | inactive |
| Osbp (GeneID 76303) | 1 | 1.05 | 1.62 | 1.52 | enough cells to score | inactive |
| Bbs1 (GeneID 52028) | 1 | 2.07 | 1.94 | 1.91 | enough cells to score | inactive |
| Itfg1 (GeneID 71927) | 1 | -1.39 | 1.4 | 1.32 | enough cells to score | inactive |
| Or5b96 (GeneID 258699) | 1 | -0.76 | 1.45 | 1.36 | enough cells to score | inactive |
| 1700128F08Rik (GeneID 76669) | 1 | -2.91 | 1.11 | 1.04 | enough cells to score | active |
| Tbck (GeneID 271981) | 1 | 0.6 | 1.51 | 1.61 | enough cells to score | inactive |
| Tbck (GeneID 271981) | 2 | 1.56 | 1.62 | 1.58 | enough cells to score | inactive |
| Stk24 (GeneID 223255) | 1 | -0.31 | 1.67 | 1.32 | enough cells to score | inactive |
| Wdr13 (GeneID 73447) | 1 | 0.36 | 1.6 | 1.62 | enough cells to score | inactive |
| Atp13a4 (GeneID 224079) | 1 | 2.5 | 1.6 | 1.9 | enough cells to score | inactive |
| Or4a79 (GeneID 404331) | 1 | 1.07 | 1.75 | 1.58 | enough cells to score | inactive |
| Zfp28 (GeneID 22690) | 1 | – | 1.18 | 1.29 | fewer than 50 cells per well; well left out of scoring | inactive |
| Zfp28 (GeneID 22690) | 2 | – | 1.18 | 1.39 | fewer than 50 cells per well; well left out of scoring | inactive |
| Cstb (GeneID 13014) | 1 | -2.21 | 1.22 | 1.05 | enough cells to score | active |
| Sbk1 (GeneID 104175) | 1 | -1.02 | 1.31 | 1.08 | enough cells to score | inactive |
| Tm7sf2 (GeneID 73166) | 1 | 0.24 | 1.58 | 1.53 | enough cells to score | inactive |
| Gykl1 (GeneID 14625) | 1 | 0.46 | 1.62 | 1.56 | enough cells to score | inactive |
| Kdf1 (GeneID 69073) | 1 | -1.5 | 1.13 | 1.29 | enough cells to score | inactive |
| Or52ad1 (GeneID 259048) | 1 | – | 1.41 | 0 | fewer than 50 cells per well; well left out of scoring | inactive |
| Radx (GeneID 102871) | 1 | -1.09 | 1.43 | 1.37 | enough cells to score | inactive |
| Or4c52 (GeneID 258790) | 1 | 1.06 | 1.69 | 1.63 | enough cells to score | inactive |
| Or13c25 (GeneID 258836) | 1 | – | 1.23 | 1.09 | fewer than 50 cells per well; well left out of scoring | inactive |
| Nkx2-6 (GeneID 18092) | 1 | -1.18 | 1.5 | 1.39 | enough cells to score | inactive |
| Stx18 (GeneID 71116) | 1 | -2.96 | 1.03 | 1.08 | enough cells to score | active |
| H2bc3 (GeneID 319178) | 1 | – | 1.35 | 0.987 | fewer than 50 cells per well; well left out of scoring | inactive |
| Gstm4 (GeneID 14865) | 1 | 1.22 | 1.86 | 1.69 | enough cells to score | inactive |
| Tmed5 (GeneID 73130) | 1 | – | 1.33 | 1.09 | fewer than 50 cells per well; well left out of scoring | inactive |
| Defb11 (GeneID 246081) | 1 | 1.65 | 1.75 | 1.84 | enough cells to score | inactive |
| Ceacam10 (GeneID 26366) | 1 | -0.48 | 1.58 | 1.64 | enough cells to score | inactive |
| Angel1 (GeneID 68737) | 1 | 1.1 | 1.64 | 1.65 | enough cells to score | inactive |
| Ccnb1 (GeneID 268697) | 1 | 0.25 | 1.48 | 1.43 | enough cells to score | inactive |
| H2-M10.2 (GeneID 333715) | 1 | – | 1.17 | 1.21 | fewer than 50 cells per well; well left out of scoring | inactive |
| Aplf (GeneID 72103) | 1 | -0.16 | 1.43 | 1.29 | enough cells to score | inactive |
| Hgs (GeneID 15239) | 1 | 1.4 | 1.9 | 1.71 | enough cells to score | inactive |
| Amh (GeneID 11705) | 1 | -0.48 | 1.57 | 1.53 | enough cells to score | inactive |
| Cdh13 (GeneID 12554) | 1 | -1.15 | 1.37 | 1.18 | enough cells to score | inactive |
| Klrd1 (GeneID 16643) | 1 | -0.23 | 1.48 | 1.32 | enough cells to score | inactive |
| Emcn (GeneID 59308) | 1 | -0.08 | 1.44 | 1.37 | enough cells to score | inactive |
| Cntnap1 (GeneID 53321) | 1 | 1.1 | 1.67 | 1.47 | enough cells to score | inactive |
| Spata18 (GeneID 73472) | 1 | 1.33 | 1.49 | 1.66 | enough cells to score | inactive |
| Sort1 (GeneID 20661) | 1 | -0.52 | 1.36 | 1.59 | enough cells to score | inactive |
| Prkd2 (GeneID 101540) | 1 | 0.47 | 1.7 | 1.5 | enough cells to score | inactive |
| Dhx57 (GeneID 106794) | 1 | 0.12 | 1.5 | 1.64 | enough cells to score | inactive |
| Plcxd3 (GeneID 239318) | 1 | -0.63 | 1.4 | 1.53 | enough cells to score | inactive |
| Prelid3a (GeneID 225655) | 1 | -2.06 | 1.23 | 1.55 | enough cells to score | active |
| Hnrnpab (GeneID 15384) | 1 | -0.69 | 1.39 | 1.58 | enough cells to score | inactive |
| Gli3 (GeneID 14634) | 1 | -2.05 | 1.14 | 1.13 | enough cells to score | active |
| Vmn1r80 (GeneID 171238) | 1 | -0.39 | 1.34 | 1.15 | enough cells to score | inactive |
| Mitf (GeneID 17342) | 1 | 0.25 | 1.38 | 1.46 | enough cells to score | inactive |
| Or11g26 (GeneID 258422) | 1 | -0.17 | 1.42 | 1.18 | enough cells to score | inactive |
| Dcaf8l (GeneID 18630) | 1 | -0.36 | 1.42 | 1.18 | enough cells to score | inactive |
| Sbno2 (GeneID 216161) | 1 | -0.66 | 1.42 | 1.8 | enough cells to score | inactive |
| Ngfr (GeneID 18053) | 1 | 0.28 | 1.47 | 1.46 | enough cells to score | inactive |
